PubChem BioAssay AID1259405, NCATS | 2018
The deposit covers about 50,000 reagents; this is a random part of them. About 4,000 of all reagents (8%) count as active. 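Mouse siRNA library applied to hamster cells; one well for each siRNA.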 Entries without a mark were called inactive. The numbers tell different reagents against one gene apart.

Test: 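Silenced genes that increase secreted GFP made by CHO cells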 (primary screen)
Cell system: Chinese hamster CHO-K1 ovary cells with stable secreted eGFP expression
Knock-down reagent: single siRNA against mouse genes, 0.8 pmol siRNA per well (2 µl of 400 nM stock)
Time to read-out: 3 days
Measured: 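Percent of the per-plate non-targeting control median for intracellular GFP per well by laser scanning cytometry and for cell viability by ATP luminescence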
Direction: GFP, % of control: higher = more GFP per well, higher productivity; viability (ATP), % of control: higher = more viable cells (more ATP)
Hit rule: 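Called active when intracellular GFP, relative to negative control, is at or above 120%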

gene	siRNA no.	GFP, % of control	viability (ATP), % of control
Gabrd (gamma-aminobutyric acid (GABA) A receptor, subunit delta)	1	68	87
Gabrd (gamma-aminobutyric acid (GABA) A receptor, subunit delta)	2	112	103
Gabrd (gamma-aminobutyric acid (GABA) A receptor, subunit delta)	3	65.6	46.6
Thap4 (THAP domain containing 4)	1	27.6	63
Thap4 (THAP domain containing 4)	2	80.3	89.2
Thap4 (THAP domain containing 4)	3	130 (active)	186
Pimreg (PICALM interacting mitotic regulator)	1	93.8	49.8
Pimreg (PICALM interacting mitotic regulator)	2	93.3	94.1
Pimreg (PICALM interacting mitotic regulator)	3	154 (active)	129
Polr2m (polymerase (RNA) II (DNA directed) polypeptide M)	1	71	58.1
Polr2m (polymerase (RNA) II (DNA directed) polypeptide M)	2	58.9	60.7
Polr2m (polymerase (RNA) II (DNA directed) polypeptide M)	3	45.1	42.1
Sh3bp5 (SH3-domain binding protein 5 (BTK-associated))	1	99.8	60
Sh3bp5 (SH3-domain binding protein 5 (BTK-associated))	2	74.8	74.8
Sh3bp5 (SH3-domain binding protein 5 (BTK-associated))	3	90.4	86.1
Ifitm3 (interferon induced transmembrane protein 3)	1	66.7	75.5
Ifitm3 (interferon induced transmembrane protein 3)	2	56.7	48.8
Ifitm3 (interferon induced transmembrane protein 3)	3	68.2	86.7
Adamts10 (ADAM metallopeptidase with thrombospondin type 1 motif 10)	1	64	58.1
Adamts10 (ADAM metallopeptidase with thrombospondin type 1 motif 10)	2	59.1	35.9
Adamts10 (ADAM metallopeptidase with thrombospondin type 1 motif 10)	3	113	93.1
Irf2bpl (interferon regulatory factor 2 binding protein-like)	1	124 (active)	94.9
Irf2bpl (interferon regulatory factor 2 binding protein-like)	2	78.6	84.3
Irf2bpl (interferon regulatory factor 2 binding protein-like)	3	65.7	86.5
Ucp2	1	120	85.4
Ucp2	2	58.8	55.4
Ucp2	3	133 (active)	106
Nxpe4 (neurexophilin and PC-esterase domain family, member 4)	1	75	54.7
Nxpe4 (neurexophilin and PC-esterase domain family, member 4)	2	61.2	83.6
Nxpe4 (neurexophilin and PC-esterase domain family, member 4)	3	116	121
Rcc1l (reculator of chromosome condensation 1 like)	1	68.1	106
Rcc1l (reculator of chromosome condensation 1 like)	2	66.3	83.7
Rcc1l (reculator of chromosome condensation 1 like)	3	55.3	51.9
Pianp (PILR alpha associated neural protein)	1	100	97.1
Pianp (PILR alpha associated neural protein)	2	87.5	85.2
Pianp (PILR alpha associated neural protein)	3	85.1	86.5
Sphkap (SPHK1 interactor, AKAP domain containing)	1	74.1	58.7
Sphkap (SPHK1 interactor, AKAP domain containing)	2	59.5	61.5
Sphkap (SPHK1 interactor, AKAP domain containing)	3	56.4	77.8
Il13 (interleukin 13)	1	77.8	90.9
Il13 (interleukin 13)	2	82.6	76.9
Septin6 (septin 6)	1	39.5	65.7
Septin6 (septin 6)	2	66.8	80.6
Eif2ak1 (eukaryotic translation initiation factor 2 alpha kinase 1)	1	78.9	73.8
Or4f4b (olfactory receptor family 4 subfamily F member 4B)	1	139 (active)	94.2
Or4f4b (olfactory receptor family 4 subfamily F member 4B)	2	78.6	80.2
Or4f4b (olfactory receptor family 4 subfamily F member 4B)	3	73.8	98.3
Fam246a (family with sequence similarity 246 member A)	1	74.1	75.6
Fam246a (family with sequence similarity 246 member A)	2	92.6	94
Fam246a (family with sequence similarity 246 member A)	3	74.8	72.4
Sdk2 (sidekick cell adhesion molecule 2)	1	69	39.4
Sdk2 (sidekick cell adhesion molecule 2)	2	44	48
Sdk2 (sidekick cell adhesion molecule 2)	3	48.2	108
Gad1 (glutamate decarboxylase 1)	1	81.1	94.4
Gad1 (glutamate decarboxylase 1)	2	72.5	66.8
Gad1 (glutamate decarboxylase 1)	3	62	48.5
Maml3 (mastermind like transcriptional coactivator 3)	1	41.7	33.1
Maml3 (mastermind like transcriptional coactivator 3)	2	121 (active)	68.7
Maml3 (mastermind like transcriptional coactivator 3)	3	154 (active)	114
Fat3 (FAT atypical cadherin 3)	1	57.9	78.8
Fat3 (FAT atypical cadherin 3)	2	118	65.1
Fat3 (FAT atypical cadherin 3)	3	45.8	52.3
Polh (polymerase (DNA directed), eta (RAD 30 related))	1	148 (active)	113
Polh (polymerase (DNA directed), eta (RAD 30 related))	2	68.6	76
Or5d40 (olfactory receptor family 5 subfamily D member 40)	1	101	70.9
Or5d40 (olfactory receptor family 5 subfamily D member 40)	2	59.8	80.9
Or5d40 (olfactory receptor family 5 subfamily D member 40)	3	68.7	71.6
Herpud2 (HERPUD family member 2)	1	124 (active)	55.2
Herpud2 (HERPUD family member 2)	2	120	94.8
Herpud2 (HERPUD family member 2)	3	88	119

9 of these entries, reformatted.
{"gene": "Or4f4b (olfactory receptor family 4 subfamily F member 4B)", "siRNA no.": 1, "GFP, % of control": "139 (active)", "viability (ATP), % of control": 94.2}
{"gene": "Or4f4b (olfactory receptor family 4 subfamily F member 4B)", "siRNA no.": 2, "GFP, % of control": 78.6, "viability (ATP), % of control": 80.2}
{"gene": "Or4f4b (olfactory receptor family 4 subfamily F member 4B)", "siRNA no.": 3, "GFP, % of control": 73.8, "viability (ATP), % of control": 98.3}
{"gene": "Fam246a (family with sequence similarity 246 member A)", "siRNA no.": 1, "GFP, % of control": 74.1, "viability (ATP), % of control": 75.6}
{"gene": "Fam246a (family with sequence similarity 246 member A)", "siRNA no.": 2, "GFP, % of control": 92.6, "viability (ATP), % of control": 94}
{"gene": "Fam246a (family with sequence similarity 246 member A)", "siRNA no.": 3, "GFP, % of control": 74.8, "viability (ATP), % of control": 72.4}
{"gene": "Sdk2 (sidekick cell adhesion molecule 2)", "siRNA no.": 1, "GFP, % of control": 69, "viability (ATP), % of control": 39.4}
{"gene": "Sdk2 (sidekick cell adhesion molecule 2)", "siRNA no.": 2, "GFP, % of control": 44, "viability (ATP), % of control": 48}
{"gene": "Sdk2 (sidekick cell adhesion molecule 2)", "siRNA no.": 3, "GFP, % of control": 48.2, "viability (ATP), % of control": 108}

Continued.
gene	siRNA no.	GFP, % of control	viability (ATP), % of control
Fez2 (fasciculation and elongation protein zeta 2)	1	42.7	60.9
Fez2 (fasciculation and elongation protein zeta 2)	2	79.4	74.9
Fez2 (fasciculation and elongation protein zeta 2)	3	91.4	84.4
Ap3b1 (adaptor-related protein complex 3, beta 1 subunit)	1	68.8	92.9
Ap3b1 (adaptor-related protein complex 3, beta 1 subunit)	2	42.6	55.8
Ap3b1 (adaptor-related protein complex 3, beta 1 subunit)	3	59.3	72.2
Chrnb1 (cholinergic receptor nicotinic beta 1 subunit)	1	101	83.3
Chrnb1 (cholinergic receptor nicotinic beta 1 subunit)	2	123 (active)	106
Chrnb1 (cholinergic receptor nicotinic beta 1 subunit)	3	72.7	66.6
Fbxo3 (F-box protein 3)	1	69	77.4
Fbxo3 (F-box protein 3)	2	67.6	77.4
Fbxo3 (F-box protein 3)	3	76	55.3
Chfr (checkpoint with forkhead and ring finger domains)	1	76.2	85.7
Chfr (checkpoint with forkhead and ring finger domains)	2	51	64
Chfr (checkpoint with forkhead and ring finger domains)	3	70.2	76
Wnt6 (WNT family member 6)	1	105	77.2
Wnt6 (WNT family member 6)	2	100	90.2
Wnt6 (WNT family member 6)	3	53.2	43.2
Smug1	1	95.7	90.5
Smug1	2	92.5	61.3
Smug1	3	104	108
Sirt6 (sirtuin 6)	1	76.7	83
Sirt6 (sirtuin 6)	2	87.5	80.8
Or14j3 (olfactory receptor family 14 subfamily J member 3)	1	60.4	63.3
Or14j3 (olfactory receptor family 14 subfamily J member 3)	2	55.2	54.2
Or14j3 (olfactory receptor family 14 subfamily J member 3)	3	88.1	46.6
Gpnmb (glycoprotein (transmembrane) nmb)	1	67.4	68.7
Gpnmb (glycoprotein (transmembrane) nmb)	2	145 (active)	90.2
Gpnmb (glycoprotein (transmembrane) nmb)	3	84	96.1
Ihh (Indian hedgehog)	1	61.1	36.8
Ihh (Indian hedgehog)	2	15.4	15.6
Ihh (Indian hedgehog)	3	32.4	54.3
Opa1 (OPA1, mitochondrial dynamin like GTPase)	1	66.4	63.4
Opa1 (OPA1, mitochondrial dynamin like GTPase)	2	66.7	84.9
Opa1 (OPA1, mitochondrial dynamin like GTPase)	3	50.6	30.9
Traip (TRAF-interacting protein)	1	72.6	62
Traip (TRAF-interacting protein)	2	111	84.6
Traip (TRAF-interacting protein)	3	68.7	90
